This passage reports binding results from paper PMC3355305, “Localized Dimerization and Nucleoid Binding Drive Gradient Formation by the Bacterial Cell Division Inhibitor MipZ” (Molecular Cell, 2012).

No constants are given. Whether binding was seen depends on the method and setting. Binding calls can cover weak binding; strength is not graded here. Sequences can lack the tags named with a protein.

The assay deals with T1, ParB, bacterial two-hybrid fusion (Caulobacter crescentus) (UniProt P0CAV8).
T1 sequence: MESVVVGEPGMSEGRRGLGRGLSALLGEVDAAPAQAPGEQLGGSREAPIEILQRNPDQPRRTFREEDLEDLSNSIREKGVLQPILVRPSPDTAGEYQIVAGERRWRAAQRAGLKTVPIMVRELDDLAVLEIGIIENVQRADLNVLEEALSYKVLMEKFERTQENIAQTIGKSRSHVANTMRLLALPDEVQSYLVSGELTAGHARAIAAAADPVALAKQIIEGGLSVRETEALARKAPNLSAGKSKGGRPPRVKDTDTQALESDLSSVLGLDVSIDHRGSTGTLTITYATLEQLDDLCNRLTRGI
As to the kind of experiment: two-hybrid; bacterial two-hybrid, E. coli BTH101, T18 and T25 fragments of adenylate cyclase; interaction evidenced by red colonies.
Take “MipZ-D42A, bacterial two-hybrid fusion (Caulobacter crescentus)”: the binding entry is “no binding”.
As for “MipZ-G14V, bacterial two-hybrid fusion (Caulobacter crescentus)”, the entry is “binds”; as for “MipZ (wild type), bacterial two-hybrid fusion (Caulobacter crescentus)”, “binds”.
Turning to “MipZ-K18Q, bacterial two-hybrid fusion (Caulobacter crescentus)”, the binding result is given as “binds”.
Then “MipZ-K13A, bacterial two-hybrid fusion (Caulobacter crescentus)”, with “binds”.
